The values that follow come from paper PMC8384837.

The other results are listed elsewhere or left out.

The assay deals with T1, PUM1 PUF domain R6-SWD R7-NPG N1043S + Y1044W + Q1047D + S1079N + N1080P + E1083G (Homo sapiens) (UniProt Q14671).
T1 sequence: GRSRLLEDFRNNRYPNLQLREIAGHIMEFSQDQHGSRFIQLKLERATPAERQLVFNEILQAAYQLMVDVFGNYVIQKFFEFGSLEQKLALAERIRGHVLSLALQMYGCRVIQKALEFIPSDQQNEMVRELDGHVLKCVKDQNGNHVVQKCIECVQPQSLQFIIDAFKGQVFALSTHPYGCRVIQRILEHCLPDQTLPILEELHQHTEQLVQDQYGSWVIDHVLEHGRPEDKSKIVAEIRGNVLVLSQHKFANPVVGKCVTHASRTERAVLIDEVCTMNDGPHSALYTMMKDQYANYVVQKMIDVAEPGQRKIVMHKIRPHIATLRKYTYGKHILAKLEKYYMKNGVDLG
The note with it: yeast three-hybrid, YBZ-1, SC-Leu-His + 0.5 mM 3-AT, 4 days.
As to “GGCUAGAACUAGUGGAUCCCCCGGCGCCCGGCGGCUCGAGCCCGGGUAAGUGGAGCACGUCUGCAUGCCGCCGGGCGCCAUGCCUGCAGGUCGACUCUAGAAAACAUG”, the binding signal (log2 enrichment (interaction score)) is -1.56.

As to “GGCUAGAACUAGUGGAUCCCCCGGCGCCCGGCGGCUCGAGCCCGGGUAAGAUUAAAUCGUCUGCAUGCCGCCGGGCGCCAUGCCUGCAGGUCGACUCUAGAAAACAUG”, the binding signal (log2 enrichment (interaction score)) is -1.45.

Turning to “GGCUAGAACUAGUGGAUCCCCCGGCGCCCGGCGGCUCGAGCCCGGGUAAGUCAUAAGCGUCUGCAUGCCGCCGGGCGCCAUGCCUGCAGGUCGACUCUAGAAAACAUG”, the binding signal (log2 enrichment (interaction score)) is -1.35.

Turning to “GGCUAGAACUAGUGGAUCCCCCGGCGCCCGGCGGCUCGAGCCCGGGUAAGUUCAGACAGUCUGCAUGCCGCCGGGCGCCAUGCCUGCAGGUCGACUCUAGAAAACAUG”, the binding signal (log2 enrichment (interaction score)) is -1.34.

Consider “GGCUAGAACUAGUGGAUCCCCCGGCGCCCGGCGGCUCGAGCCCGGGUAAGUGUCACUCGUCUGCAUGCCGCCGGGCGCCAUGCCUGCAGGUCGACUCUAGAAAACAUG”, for which the binding signal (log2 enrichment (interaction score)) was -0.64.

With “GGCUAGAACUAGUGGAUCCCCCGGCGCCCGGCGGCUCGAGCCCGGGUAAGGUAAAACAGUCUGCAUGCCGCCGGGCGCCAUGCCUGCAGGUCGACUCUAGAAAACAUG”, the binding signal (log2 enrichment (interaction score)) is -0.57.

As to “GGCUAGAACUAGUGGAUCCCCCGGCGCCCGGCGGCUCGAGCCCGGGUAAGGCUUAACGGUCUGCAUGCCGCCGGGCGCCAUGCCUGCAGGUCGACUCUAGAAAACAUG”, the binding signal (log2 enrichment (interaction score)) was -0.47.

“GGCUAGAACUAGUGGAUCCCCCGGCGCCCGGCGGCUCGAGCCCGGGUAAGUUCAAUGAGUCUGCAUGCCGCCGGGCGCCAUGCCUGCAGGUCGACUCUAGAAAACAUG”: the binding signal (log2 enrichment (interaction score)) was -1.28.
